Source: PubChem BioAssay AID686943 (Drosophila RNAi Screening Center, 2013)

- Purpose: 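Search across the genome for regulators of signalling from receptor tyrosine kinase to ERK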 (primary screen)
- Cell system: Drosophila S2R+ haemocyte-like cells expressing YFP-tagged ERK (Rolled)
- Reagent: long dsRNA against Drosophila genes
- Conditions: insulin stimulation versus unstimulated cells; dose and duration not given
- Measurement: 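Per-plate z-scores of phospho-ERK immunostaining normalised to YFP-tagged ERK, measured with and without insulin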
- Scale: replicate 1, z-score of dpERK with insulin and replicate 2, z-score of dpERK with insulin: higher = more active ERK per ERK-YFP after insulin
The deposit covers about 23,000 reagents; shown is a random part of those that have a named target and a result. 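Extra replicates exist only for a retested subset of genes; insulin dose and duration not given; both raised and lowered dpERK matter.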 Reagents against one gene are numbered here. Names joined by + are all predicted targets of the reagent. Not all columns of the deposit are shown. Not given: the amount of reagent, the time to read-out.

| Gene | reagent | replicate 1, z-score of dpERK with insulin | replicate 2, z-score of dpERK with insulin |
| --- | --- | --- | --- |
| CG30156 | 1 | -0.18 | -0.01 |
| Muc30E | 1 | -0.2 | 0.92 |
| AnxB10 | 1 | -0.05 | 0.34 |
| Wdr82 | 1 | 0.61 | 0.11 |
| Wdr82 | 2 | -0.49 | -1.22 |
| CG13693 | 1 | 0.11 | -0.59 |
| CG4553 | 1 | 0.12 | -0.11 |
| eyg | 1 | -5.17 | -2.96 |
| slp1 | 1 | 0.6 | 1.32 |
| Mur29B | 1 | 1.17 | 1.32 |
| Mur29B | 2 | -0.29 | 0.84 |
| a5 | 1 | -0.57 | -0.37 |
| CG6766 | 1 | 0.22 | -0.52 |
| CG43339 | 1 | 0.35 | -0.13 |
| CG8541 | 1 | 0.22 | 0.61 |
| CG13409 | 1 | -1.32 | 0.18 |
| CG7222 | 1 | 0.67 | 0.17 |
| Lsp1beta | 1 | 0.23 | -0.21 |
| CG43088 | 1 | 1.27 | -0.59 |
| CG43088 | 2 | -0.03 | -0.33 |
| Frmd5 | 1 | -0.18 | 0.28 |
| Sfxn2 | 1 | -0.79 | 0.33 |
| CG7330 | 1 | 0.85 | 0.69 |
| CG7330 | 2 | -0.63 | -0.14 |
| Cpr65Au | 1 | 0.09 | 0.93 |
| Rsod | 1 | -0.04 | 0.1 |
| CG11109 | 1 | 0.34 | -0.72 |
| Mkp + CG34140 | 1 | 0.66 | -0.01 |
| Pdp | 1 | 1.13 | 1.26 |
| CG14075 | 1 | -0.09 | -0.08 |
| pain | 1 | -0.46 | 0.21 |
| Galphai | 1 | -0.73 | 0.35 |
| CG4570 | 1 | 2.42 | 1.57 |
| CG15213 | 1 | -1.4 | -0.94 |
| Dhfr | 1 | 2 | 0 |
| repo | 1 | 0.26 | -0.94 |
| CanA-14F | 1 | -1.58 | -0.47 |
| CG2839 | 1 | 0.71 | 0.02 |
| CG33230 | 1 | 0.09 | -0.6 |
| Jabba | 1 | 0.1 | 0.36 |
| gammaCOP | 1 | -0.29 | 0 |
| Gmppa | 1 | 0.35 | 0.25 |
| CG3719 | 1 | -0.67 | 1 |
| CG13215 | 1 | 0.81 | 0.94 |
| mdu | 1 | -4.77 | -1.14 |
| Bub3 | 1 | -0.28 | -0.42 |
| az2 | 1 | -0.56 | 0.2 |
| tey | 1 | 1.33 | -1.06 |
| tey | 2 | 0.01 | -1.64 |
| Tm1 | 1 | -0.76 | 0.81 |
| Tm1 | 2 | 0.66 | 1.23 |
| Tm1 | 3 | 0.3 | 0.3 |
| peg | 1 | 0.71 | -0.48 |
| CG32720 | 1 | 0.56 | 0.59 |
| CG15522 | 1 | -0.06 | 0.02 |
| CG6142 | 1 | 0.03 | 0 |
| CG14196 | 1 | 0.72 | 1.03 |

No new results follow: 3 of the entries above.
| Gene | reagent | replicate 1, z-score of dpERK with insulin | replicate 2, z-score of dpERK with insulin |
| --- | --- | --- | --- |
| tey | 2 | 0.01 | -1.64 |
| Tm1 | 1 | -0.76 | 0.81 |
| Tm1 | 2 | 0.66 | 1.23 |
